Results from article PMC12444171, “Chromatin remodeler BRD9 represses transcription of PPARα target genes, including CPT1A to suppress lipid metabolism” (Journal of Lipid Research, 2025).
These are yes or no findings as the source states them, for the method shown. For some assays here: In cells and extracts the contact can be indirect. Some entries that bind do so weakly or less than the wild type. Tags and fused reporters may be left off the sequences shown. One block for each molecule: values may come before it.

Chains of the proteins cited; added tags and fusions are not shown.
UniProt Q9H8M2: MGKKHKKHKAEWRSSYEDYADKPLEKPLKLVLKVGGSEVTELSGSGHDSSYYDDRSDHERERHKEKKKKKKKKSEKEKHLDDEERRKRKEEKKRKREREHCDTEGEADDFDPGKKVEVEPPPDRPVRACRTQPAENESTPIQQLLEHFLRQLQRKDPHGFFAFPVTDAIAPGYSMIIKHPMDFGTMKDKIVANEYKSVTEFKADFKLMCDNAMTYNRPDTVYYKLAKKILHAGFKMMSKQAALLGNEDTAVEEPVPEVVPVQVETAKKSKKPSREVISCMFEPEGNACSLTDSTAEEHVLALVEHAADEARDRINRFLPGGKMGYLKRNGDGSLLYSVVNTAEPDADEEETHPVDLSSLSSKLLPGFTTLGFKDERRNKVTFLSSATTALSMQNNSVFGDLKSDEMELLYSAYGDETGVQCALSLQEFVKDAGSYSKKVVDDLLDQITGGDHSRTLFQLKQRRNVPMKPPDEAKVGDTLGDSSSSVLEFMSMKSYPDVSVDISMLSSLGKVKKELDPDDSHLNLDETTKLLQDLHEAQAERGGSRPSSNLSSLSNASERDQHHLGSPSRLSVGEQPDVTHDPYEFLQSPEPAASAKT

Legend:
[1] = biological target: T1, FLAG-PPARα (peroxisome proliferator-activated receptor α with 3×FLAG) (human) (UniProt Q07869); experiment: pull-down; FLAG-PPARα captured from HEK293T lysate on anti-FLAG antibody-Dynabeads Protein G and washed, then incubated with purified BRD7-His or BRD9-His for 12 h at 4°C; Western blot; both purified
T1 sequence (chain, acetylated lysine residue(s), positions not stated): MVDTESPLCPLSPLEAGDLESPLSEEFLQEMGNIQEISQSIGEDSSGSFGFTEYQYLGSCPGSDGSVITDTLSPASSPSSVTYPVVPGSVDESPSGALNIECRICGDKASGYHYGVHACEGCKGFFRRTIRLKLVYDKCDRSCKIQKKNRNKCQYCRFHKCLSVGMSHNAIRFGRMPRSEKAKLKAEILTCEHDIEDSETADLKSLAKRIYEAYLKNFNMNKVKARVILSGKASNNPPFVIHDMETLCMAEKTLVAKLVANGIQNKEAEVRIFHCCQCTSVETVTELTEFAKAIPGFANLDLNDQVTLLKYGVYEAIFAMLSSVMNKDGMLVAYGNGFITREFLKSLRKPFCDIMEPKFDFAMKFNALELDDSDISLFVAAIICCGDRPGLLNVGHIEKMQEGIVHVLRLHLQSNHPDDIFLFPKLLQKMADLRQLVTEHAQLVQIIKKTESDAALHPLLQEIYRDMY

[2] = biological target: BRD9-His (bromodomain-containing protein 9 with His tag) (human) (UniProt Q9H8M2); experiment: co-IP; HEK293T cells co-transfected with FLAG-PPARα and BRD7-His or BRD9-His; lysate (0.3 M NaCl, 0.5% NP-40, pH 8.0) on anti-His tag antibody-Dynabeads Protein G, 2 h at room temperature; Western blot; in Fig. 5C the cells were treated with 30 μM WY-14643 and/or 40 μM BI-9564 for 48 h (interaction markedly attenuated)

binding [1]: binds
Molecule: BRD9-His (bromodomain-containing protein 9 with His tag) (from UniProt Q9H8M2 1-597)

binding [2]: binds
B1: FLAG-PPARα (peroxisome proliferator-activated receptor α with 3×FLAG) (natural protein, human, UniProt Q07869 1-468, looked up)
chain: T1 sequence (chain, acetylated lysine residue(s), positions not stated)
modifications: acetylated lysine residue(s), positions not given
notes: the sites are not mapped; source: HEK293T, transfected (pcDNA3.1), in lysate; for the pull-down captured from lysate on anti-FLAG antibody-Dynabeads Protein G and washed; not shown: 3×FLAG, N-terminal, kept
